Assay results from EP1222194B1, “7-ACYLAMINO-3-HETEROARYLTHIO-3-CEPHEM CARBOXYLIC ACID ANTIBIOTICS AND PRODRUGS THEREOF” (priority 1999, dated 2001).

Test system: S. aureus ATCC29213
Experiment: Human serum binding effect (MIC with and without human serum)
Type: cell-based, Staphylococcus aureus
Conditions: Ratio of MIC value determined with and without human serum added for S. aureus ATCC29213; human serum:MHB 1:1

In the case of `CN[C@H](CC(C)C)C(=O)N[C@H]1C(=O)N[C@@H](CC(N)=O)C(=O)N[C@H]2C(=O)N[C@H]3C(=O)N[C@H](C(=O)N[C@H](C(=O)O)c4cc(O)cc(O)c4-c4cc3ccc4O)[C@H](O)c3ccc(c(Cl)c3)Oc3cc2cc(c3O[C@@H]2O[C@H](CO)[C@@H](O)[C@H](O)[C@H]2O[C@H]2C[C@](C)(N)[C@H](O)[C@H](C)O2)Oc2ccc(cc2Cl)[C@H]1O` [Van, Vancomycin], the “Human serum binding effect” value is reported as 2.
